Results are given in words; binding and its absence hold for the method and conditions named. A result given as binding can be weak or reduced; the word gives no strength. Sequences can lack the tags named with a protein.

Here are results for one substance from article doi:10.1101/2025.02.04.636545.

The test deals with T1, MBP-BBS8 (C. reinhardtii).
T1 sequence: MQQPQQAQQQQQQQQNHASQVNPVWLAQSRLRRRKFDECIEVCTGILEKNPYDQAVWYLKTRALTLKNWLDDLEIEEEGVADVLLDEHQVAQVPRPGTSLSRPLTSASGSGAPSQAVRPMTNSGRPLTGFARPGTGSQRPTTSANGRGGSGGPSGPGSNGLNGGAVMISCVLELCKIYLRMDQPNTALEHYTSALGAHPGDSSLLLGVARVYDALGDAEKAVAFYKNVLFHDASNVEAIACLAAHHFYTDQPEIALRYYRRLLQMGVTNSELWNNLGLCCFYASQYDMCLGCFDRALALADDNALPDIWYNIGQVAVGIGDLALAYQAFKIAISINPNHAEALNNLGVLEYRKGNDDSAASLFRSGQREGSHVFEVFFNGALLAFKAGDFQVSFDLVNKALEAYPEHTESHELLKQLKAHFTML
Description: pull-down.

On to “RAB18Q67L (bacterially expressed) (C. reinhardtii)”, for which the binding result is on record as “binds”.
